These results are taken from PMC6848931.

By UniProt entry, the sequences of proteins in these tests, tags left out. Where a name states a change or a piece, a line headed by the entry shows the natural chain unless it says otherwise. Chains listed by the source or under a name are the forms on record and can include a tag or linker.
UniProt O00571: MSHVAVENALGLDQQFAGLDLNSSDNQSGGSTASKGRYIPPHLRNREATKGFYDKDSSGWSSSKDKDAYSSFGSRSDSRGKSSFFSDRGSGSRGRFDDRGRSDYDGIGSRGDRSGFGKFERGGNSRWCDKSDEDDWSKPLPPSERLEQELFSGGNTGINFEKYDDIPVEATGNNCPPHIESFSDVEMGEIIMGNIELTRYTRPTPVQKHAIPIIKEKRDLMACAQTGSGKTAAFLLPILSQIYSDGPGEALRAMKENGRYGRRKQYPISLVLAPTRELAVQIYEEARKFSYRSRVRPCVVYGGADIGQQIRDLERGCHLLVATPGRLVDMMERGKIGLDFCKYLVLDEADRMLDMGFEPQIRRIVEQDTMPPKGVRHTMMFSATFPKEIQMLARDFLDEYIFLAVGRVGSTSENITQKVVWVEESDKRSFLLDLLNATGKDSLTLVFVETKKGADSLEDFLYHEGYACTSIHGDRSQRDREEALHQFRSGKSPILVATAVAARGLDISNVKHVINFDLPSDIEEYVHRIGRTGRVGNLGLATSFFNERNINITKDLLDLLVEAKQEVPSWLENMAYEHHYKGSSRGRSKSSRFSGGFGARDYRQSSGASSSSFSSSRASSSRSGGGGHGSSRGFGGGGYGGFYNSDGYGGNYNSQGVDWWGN
mCherry-DDX3X(qmNESα) (full length) (O00571, form named): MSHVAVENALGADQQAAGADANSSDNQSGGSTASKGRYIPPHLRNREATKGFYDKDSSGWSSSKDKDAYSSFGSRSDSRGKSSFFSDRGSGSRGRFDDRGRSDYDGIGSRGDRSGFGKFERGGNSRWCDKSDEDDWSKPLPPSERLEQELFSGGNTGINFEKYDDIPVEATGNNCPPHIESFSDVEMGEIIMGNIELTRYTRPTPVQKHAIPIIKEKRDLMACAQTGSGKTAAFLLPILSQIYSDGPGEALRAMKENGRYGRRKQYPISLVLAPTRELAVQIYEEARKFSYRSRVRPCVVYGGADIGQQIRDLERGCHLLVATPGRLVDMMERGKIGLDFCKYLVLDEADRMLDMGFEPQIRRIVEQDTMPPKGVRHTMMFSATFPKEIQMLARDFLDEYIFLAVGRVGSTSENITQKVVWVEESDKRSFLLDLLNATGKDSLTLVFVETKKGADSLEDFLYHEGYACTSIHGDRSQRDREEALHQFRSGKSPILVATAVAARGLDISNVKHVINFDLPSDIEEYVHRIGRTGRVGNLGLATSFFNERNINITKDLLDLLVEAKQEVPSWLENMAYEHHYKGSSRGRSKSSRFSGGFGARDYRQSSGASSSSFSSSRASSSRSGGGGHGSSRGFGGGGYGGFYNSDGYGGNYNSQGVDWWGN

No constants are given. Whether binding was seen depends on the method and setting. Binding seen in cells or lysates may run through a third protein.

The target of the assay is mCherry-DDX3X(qmNESα) (full length) (human) (UniProt O00571). Description: co-IP; anti-mCherry antibody on Protein G magnetic resin; lysate of FACS-sorted HEK-293T cells in 20 mM Tris-Cl pH 7.4, 150 mM NaCl, 0.1% IPEGAL with RNaseA; 30 min at 4 °C; immunoblot for endogenous proteins. On the technique in general: Immunoblotting shows a protein as a band on a membrane.

“endogenous exportin-1 (from UniProt O14980 1-1071) (receptor)”: the binding result is recorded as “no binding”.
